The results in this text go back to article doi:10.1101/2021.03.18.435801.

The chains behind the UniProt entries cited, without tags or fusion partners.
UniProt P42338: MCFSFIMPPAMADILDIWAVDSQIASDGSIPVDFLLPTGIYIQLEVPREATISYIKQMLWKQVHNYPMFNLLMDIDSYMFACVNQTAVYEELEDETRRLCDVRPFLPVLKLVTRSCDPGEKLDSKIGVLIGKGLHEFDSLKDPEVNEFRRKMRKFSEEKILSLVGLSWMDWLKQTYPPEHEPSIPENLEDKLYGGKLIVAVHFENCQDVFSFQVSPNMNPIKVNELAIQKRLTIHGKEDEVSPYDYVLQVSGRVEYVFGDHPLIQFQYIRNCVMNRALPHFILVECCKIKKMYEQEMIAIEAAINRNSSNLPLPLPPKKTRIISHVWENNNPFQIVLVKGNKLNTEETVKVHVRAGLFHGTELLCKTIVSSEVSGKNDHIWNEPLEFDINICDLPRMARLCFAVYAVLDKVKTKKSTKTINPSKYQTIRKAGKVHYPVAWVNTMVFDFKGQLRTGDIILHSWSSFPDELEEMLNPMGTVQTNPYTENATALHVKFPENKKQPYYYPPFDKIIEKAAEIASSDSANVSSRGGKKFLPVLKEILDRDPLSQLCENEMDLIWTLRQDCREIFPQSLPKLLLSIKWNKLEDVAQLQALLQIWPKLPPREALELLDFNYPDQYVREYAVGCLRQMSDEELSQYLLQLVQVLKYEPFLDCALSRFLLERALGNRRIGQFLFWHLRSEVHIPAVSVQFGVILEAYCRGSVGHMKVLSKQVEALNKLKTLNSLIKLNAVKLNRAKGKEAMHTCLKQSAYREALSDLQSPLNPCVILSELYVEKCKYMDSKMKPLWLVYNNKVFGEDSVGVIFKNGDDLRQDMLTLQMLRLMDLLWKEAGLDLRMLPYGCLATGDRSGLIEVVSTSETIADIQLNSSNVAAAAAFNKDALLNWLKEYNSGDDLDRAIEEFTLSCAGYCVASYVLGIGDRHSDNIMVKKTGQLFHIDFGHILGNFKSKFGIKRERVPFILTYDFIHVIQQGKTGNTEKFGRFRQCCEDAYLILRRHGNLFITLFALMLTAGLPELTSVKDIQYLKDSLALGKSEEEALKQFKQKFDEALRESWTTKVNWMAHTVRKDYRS

The target of the assay is EGFR (human (endogenous in TR3 and TR5 tumor-derived cells)) (UniProt P00533). Put plainly: co-IP.

Results are given in words; binding and its absence hold for the method and conditions named. In cells and extracts the contact can be indirect. Some entries that bind do so weakly or less than the wild type.

With PI3Kβ (from UniProt P42338 1-1070), the binding entry is “binds”.
